PubChem BioAssay AID1671195 | Yale University | 2021

Purpose: 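Knockdowns that increase or decrease uptake of fluorescent LDL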 (primary screen)
Cell system: human Huh7 hepatoma cells
Reagent: siRNA pool against human genes, 18 nM
Time to read-out: about 2 to 2.5 days of knockdown, then 8 h LDL uptake
Treatment: DiI-labelled LDL at 30 µg/ml for 8 h, in lipoprotein-deficient serum medium
Measurement: 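Fluorescent LDL signal imaged in cells, scaled to the plate median, robust z-score for each replicate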
Reading the numbers: robust z-score: higher = more LDL uptake after knockdown
Rule for the call: 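a gene counts as active if at least two replicate z-scores exceed ±2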
Here is a random part of about 22,000 deposited reagents. Of all reagents, about 1,510 (6.9%) got an active call. 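Active includes knockdowns raising or lowering LDL uptake; positive z-scores mean more uptake, negative mean less.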 Reagents against one gene are numbered here.

robust z-score, replicate 1	robust z-score, replicate 2	robust z-score, replicate 3	call	target	reagent
-0.103	-1.06	-1.16	inactive	GRAMD1B	1
-1.35	-1.65	-1.61	inactive	LILRA4	1
1.39	1.84	1.91	inactive	LOC440867 (retired record)	1
0.702	0.724	0.649	inactive	C16orf96	1
0.332	1.65	1.11	inactive	HSPB3	1
0.611	0.685	0.812	inactive	DZIP1	1
0.226	0.104	0.188	inactive	CYP2C8	1
-2.17	-2.18	-1.79	active	LOC442665 (retired record)	1
-1.06	0.171	1.62	inactive	MYCBP2	1
-0.0562	0.503	0.244	inactive	LOC441414 (retired record)	1
0.00607	0.98	0.153	inactive	MIA3	1
-0.533	0.094	-0.372	inactive	CILP2	1
0.292	-0.109	0.264	inactive	SNX14	1
-0.0817	-0.107	0.00703	inactive	TNFSF10	1
2.82	2.42	2.94	active	ZBTB46	1
-1.26	-1.33	-1.49	inactive	RNF125	1
-0.964	-0.814	-0.835	inactive	ALDH1L2	1
-0.326	-0.526	-0.405	inactive	EMX2	1
1.69	1.45	1.37	inactive	ACADS	1
-1.02	-0.127	-0.052	inactive	CTBP1-DT	1
-0.233	-0.997	-2.27	inactive	ASNS	1
-0.0881	-0.388	0.0403	inactive	NCALD	1
-2.34	-1.88	-2	active	LOC440679 (retired record)	1
-0.149	0.143	1.48	inactive	SIRT4	1
1.21	2.23	1.29	inactive	DHRS13	1
1.38	-0.462	1.62	inactive	STARD3	1
2.06	0.718	2	inactive	IFNK	1
-0.64	-0.38	-1.04	inactive	ASIC2-AS1	1
0.495	1.22	0.953	inactive	C2CD2L	1
0.256	0.115	0.0394	inactive	BEAN1	1
-0.284	-0.256	-0.68	inactive	LOC440986 (retired record)	1
-1.24	-0.987	-0.905	inactive	KLF8	1
-0.553	-0.954	-0.562	inactive	AQP3	1
-0.354	0.0828	0.0779	inactive	BCORP1	1
-0.2	-0.33	-0.146	inactive	SKA3	1
1.64	1.56	1.69	inactive	FHIT	1
-0.431	-1.55	-1.43	inactive	TSFM	1
-1.01	0.0983	-0.544	inactive	SPRR2G	1
1.59	1.99	2.94	active	SLC25A26	1
1.04	1.48	0.74	inactive	GFOD1	1
-1.28	-1.05	-1.21	inactive	GFOD1	2
1.32	1.23	1.04	inactive	ST6GALNAC3	1
3.21	2.64	2.78	active	BTNL3	1
0.103	-0.498	-0.184	inactive	TXNL4B	1
0.124	-0.421	-0.459	inactive	USP17L8	1
-0.0273	0.81	0.43	inactive	KDM4D	1
-0.356	0.152	0.0157	inactive	SEC14L4	1
0.158	0.0832	0.222	inactive	LOC440923 (retired record)	1
0.877	0.435	0.704	inactive	PTOV1	1
-0.154	-1.27	-0.823	inactive	LOC200491 (retired record)	1
1.06	0.443	0.0436	inactive	LOC399969 (retired record)	1
-0.32	-0.638	-0.334	inactive	CA15P2	1
1.13	0.774	-0.161	inactive	MPP3	1
1.66	1.32	1.06	inactive	SLC25A25-AS1	1
-0.265	-0.00264	-1.21	inactive	TRDN	1
-0.0533	-0.147	-0.353	inactive	DYNLT4	1
0.351	0.412	0.0227	inactive	RGS6	1
-0.559	0.276	-0.506	inactive	HLA-DPA1	1
0.598	1.45	0.787	inactive	SPRING1	1
0.233	-0.562	0.105	inactive	PDZD11	1
-0.498	-0.639	-0.544	inactive	RTL3	1
0.0199	-0.123	0.555	inactive	URM1	1
-0.262	-0.873	-0.215	inactive	CEP83	1
2.05	1.53	2.5	active	RXFP3	1
-0.94	-1.12	-0.966	inactive	RFX5	1
0.338	-0.121	-0.0899	inactive	LOC441393 (retired record)	1
0.536	0.0838	0.0124	inactive	ALG3	1
1.38	1.73	2.73	inactive	ZPBP2	1

Copied from the listing (11 entries):
robust z-score, replicate 1	robust z-score, replicate 2	robust z-score, replicate 3	call	target	reagent
1.04	1.48	0.74	inactive	GFOD1	1
-1.28	-1.05	-1.21	inactive	GFOD1	2
1.32	1.23	1.04	inactive	ST6GALNAC3	1
3.21	2.64	2.78	active	BTNL3	1
0.103	-0.498	-0.184	inactive	TXNL4B	1
0.124	-0.421	-0.459	inactive	USP17L8	1
-0.0273	0.81	0.43	inactive	KDM4D	1
-0.356	0.152	0.0157	inactive	SEC14L4	1
0.158	0.0832	0.222	inactive	LOC440923 (retired record)	1
0.877	0.435	0.704	inactive	PTOV1	1
-0.154	-1.27	-0.823	inactive	LOC200491 (retired record)	1
